Assay results: PubChem BioAssay AID504834 (National Center for Advancing Translational Sciences (NCATS), 2011)
About 22,000 (6.9%) of roughly 320,000 compounds were called active. The inconclusive results got no clear call from the source; some entries with a clear call stand among them for comparison. Calls come from the whole dose curve; as a rule, active = well fitted inhibition curve with a large enough effect; inconclusive = small, poorly fitted or top-dose-only effect, or another doubt; inactive = no such curve, though single readings can be large or run the other way. Where the call is inconclusive, the potency comes from a doubtful curve fit.

test: Primary qHTS for delayed death inhibitors of the malarial parasite plastid, 96 hour incubation; conditions: P. falciparum luciferase reporter growth; series mostly up to 28.7 µM
Procedure, shortened: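 Two parasite generations (96 h, 37 C, 5% CO2) of compound exposure in infected erythrocytes (0.05% parasitemia, 2% hematocrit). Luciferase-reporter P. falciparum; decreased luminescence indicates inhibited growth, aimed at apicoplast-acting delayed death.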
Potency is the fitted concentration of half-maximal effect.

| Structure (SMILES) | Potency |
| --- | --- |
| O=C(c1ccc(Cl)c(Cl)c1)c1cc(-c2ccccn2)c(N2CCOCC2)s1 | inconclusive: 10.4 µM [inhibitor, single point] |
| Cc1ccc(NC(=O)CSCc2cc(=O)n3ccsc3n2)c(C)c1 | inactive |
| CCCCc1nc2cc(C(=O)NCc3ccccn3)ccc2o1 | active: 11.7 µM |
| CC1CN(S(=O)(=O)c2cccc(-c3cn4cccnc4n3)c2)CC(C)O1 (configuration not stated) | inactive |
| CC(C)(C)N1C(=O)[C@H]2[C@@H](c3ccc(Br)cc3)N3C(=O)N(c4cccc(F)c4)C(=O)[C@@]3(Cc3ccccc3)[C@H]2C1=O | active: 4.65 µM |
| COc1ccc(N2CCN(CCCn3c(=S)[nH]c4ncccc4c3=O)CC2)cc1 | active: 13.1 µM |
| O=C(c1ccc(F)cc1)N1CCN(c2ccccn2)CC1 | inactive |
| Cc1ccc(N(Cc2ccc(C(=O)NN=C3CCN(C)CC3)cc2)S(C)(=O)=O)cc1C | inactive |
| CC(=O)C1=C(C)Nc2ncnn2C1c1ccccc1Cl (configuration not stated) | active: 0.522 µM |
| Cc1ccc(OCC(=O)NNC(=O)c2cccnc2)cc1 | inconclusive: 14.7 µM [inhibitor, partial curve, poor fit] |
| CCOC(=O)c1csc(N)n1 | inactive |
| CCn1c(SCC(=O)NCc2ccc3c(c2)OCO3)nnc1-c1c[nH]c2ccccc12 | inconclusive: 18.5 µM [inhibitor, single point] |
| COC(=O)[C@]1(Cc2ccccc2)N[C@H](c2ccc(-c3ccccc3)cc2)[C@@H]2C(=O)N(C)C(=O)[C@@H]21 | inconclusive: 11.7 µM [inhibitor, single point] |
| NS(=O)(=O)c1ccc(CCNC(=O)c2cccc3ccccc23)cc1 | inactive |
| CCCc1cc(=O)oc2c(C)c(O)c(CN3CCCCC3)cc12 | active: 2.08 µM |
| COc1ccccc1CNc1nc2nc(C)c(Cl)c(=O)n2[nH]1 | inactive |
| Cn1c(=O)c2c(SCC(=O)Nc3ccccc3F)nc(C3CC3)nc2n(C)c1=O | inconclusive: 18.5 µM [inhibitor, single point] |
| CSc1ccccc1NC(=O)CN(C)C(C)C(=O)NC(=O)NC1CCCCC1 (configuration not stated) | inconclusive: 1.65 µM [inhibitor, partial curve] |
| Cc1ccc(NC(=O)CNCCCN2CCOCC2)cc1S(=O)(=O)N1CCCCC1 | inconclusive: 5.86 µM [inhibitor, partial curve] |
| CCn1c(SC(C)C)nnc1-c1cc(-c2ccccc2)sc1N | inconclusive: 9.28 µM [inhibitor, single point] |
| CCCCn1c2c(c(=N)c3c1CCC3)CCC2 | active: 0.0329 µM |
| O=C(CN1CCN(S(=O)(=O)N2CCCCCC2)CC1)Nc1ccc(F)cc1 | inconclusive: 13.1 µM [inhibitor, single point] |

A draw from above in order of SMILES length, ascending:

| Structure (SMILES) | Potency |
| --- | --- |
| Cc1ccc(OCC(=O)NNC(=O)c2cccnc2)cc1 | inconclusive: 14.7 µM [inhibitor, partial curve, poor fit] |
| O=C(c1ccc(F)cc1)N1CCN(c2ccccn2)CC1 | inactive |
| O=C(c1ccc(Cl)c(Cl)c1)c1cc(-c2ccccn2)c(N2CCOCC2)s1 | inconclusive: 10.4 µM [inhibitor, single point] |
